## Library screen at single concentrations

From ChEMBL document CHEMBL3988442, “University of Dundee, Small-Polar-MMV Screening Library” (2021).

Results are given as percent effect. The controls that fix the scale are not given in the record; negative values are as filed. This is an unselected part of the compounds tested. A dash means the value is not listed here; it may have been measured.

T. brucei: 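Whole-parasite assay of Trypanosoma brucei over 72 hours; the read-out is not stated. Tested at 30 µM. Direction is inferred from retests: higher values go with stronger inhibition. Values scatter widely below zero; nearly all retest evidence comes from the higher of the two concentrations used. Of about 64,000 compounds tested this way, about 940 (1.5%) reached 50% or more in at least one test.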
Toxoplasma: 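Assay of Toxoplasma gondii numbers, read through their beta-galactosidase reporter with a colour substrate. Concentration: 10 µM. Higher reads as fewer parasites (inferred from which compounds were picked for retests). About 67,000 compounds were tested under these conditions; 0.38% (about 260) showed 50% or more at least once.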

compound | T. brucei | Toxoplasma
COCC(C)NC(=O)NCCc1cccc(OC)c1O (stereo not given) | -20.83% | -1.831%
Cc1noc(CSc2ccc(C(F)(F)F)cn2)n1 | -22.87% | 4.253%
Cn1cncc1CN1CCOC(Cc2ccccc2)C1 (stereo not given) | -15.68% | 26.97%
N#CCSCCCN1CCCN(C(=O)c2ccccc2)CC1 | -56.28% | 5.369%
CCOC(=O)C1(Cc2ccccc2)CCCN(Cc2nccn2CC)C1 (stereo not given) | 95.74% | 0.7692%
CC(NC1CCN(CC(=O)N(C)C)CC1)c1cnn(C(C)C)c1 (stereo not given) | -40.45% | -15.26%
COc1ccc2c(c1)CCCN2C(=O)NCCc1cnn(C)c1 | -54.6% | 8.333%
CC1(C)CN(S(=O)(=O)N2CCOCC2)CC1c1ccccc1 (stereo not given) | - | 1.521%
O=C(O)C(F)(F)F.O=C(O)C(F)(F)F.[H][C@@]12CN(Cc3cc[nH]n3)C[C@]1([H])OCCN2CCOC | 6.368% | -14.43%
O=C(O)C(F)(F)F.O=C(O)C(F)(F)F.[H][C@@]12OCCC[C@]1([H])N(C(=O)c1ccc(C)nc1)C[C@@H]2N1CCOCC1 | -3.22% | -7.881%
COC(=O)c1cccc(C(=O)N2CCN(c3cccc(C)c3C)CC2)n1 | 17.14% | 6.984%
CC1CN(C)c2ccccc2CN1CCn1cncn1 (stereo not given) | -41.9% | 4.302%
CCN1Cc2c(C(=O)NCC3CC3)ncn2-c2ccccc2S1(=O)=O | -17.65% | 1.074%
Cc1nc(CN2CCCC(NCc3nc4ccccc4s3)C2)no1 (stereo not given) | 74.19% | -4.441%
Cc1ccc(N2CCCC(NCc3c(C)noc3C)C2)nn1 (stereo not given) | - | 10.32%
CC(C)C(=O)NCCc1cc2nc(-c3ccncc3)ccn2n1 | -6.637% | 19.4%
COc1cc(C)c(NC(=O)NCCn2cccc2)cc1OC | -24.31% | 12.29%
Cn1ccc(C(=O)N2CCCC(CNS(C)(=O)=O)C2)cc1=O (stereo not given) | -18.34% | -24.45%
O=C(O)C(F)(F)F.O=C(O)C(F)(F)F.c1cc(CN2CCc3ncnc(C4CCOC4)c3CC2)ccn1 (stereo not given) | 7.146% | 4.68%
O=C(CCCc1ncc(-c2ccccc2)o1)N1CCN(CCO)CC1 | -1.796% | -
N#Cc1nccnc1NC1CCN(c2c(F)cccc2F)C1 (stereo not given) | -31.66% | -4.482%
[H][C@]12CCC(=O)N[C@@]1(C)CCCCN2C(=O)c1cn2c(C)cccc2n1 | -26.61% | -44.15%
CCn1cc(-c2nccnc2C2CCCN(C(C)=O)C2)cn1 (stereo not given) | - | 8.656%
CCCSc1ncc(-c2nccn2CCO)cn1 | -33.41% | 11.84%
COc1cc(C)c(C(C)NC(=O)Nc2nnc(C)s2)cc1OC (stereo not given) | 27.54% | 3.668%
CC(C)C1CN(C(=O)c2cn3cc(Cl)cnc3n2)CCCN1CC1CC1 (stereo not given) | -21.67% | 7.766%
Cc1cnc(CN(C)C2CCN(Cc3sc(C)nc3C)C2)o1 (stereo not given) | -31.28% | 9.982%
CN(C)c1ccc(C(=O)Nc2cnn(Cc3ccccn3)c2)cc1 | -7.874% | 11.07%
COc1ccc(CN2C[C@@H](O)[C@](O)(CNC(=O)c3ccccn3)C2)cc1 | -9.132% | 5.927%
Cc1nc2c(c(=O)[nH]1)CN(Cc1ccc3c(c1)CCCN3C)CC2 | -4.176% | -30.28%
CC(CNC(=O)CCn1cncn1)N1CCc2ccccc21 (stereo not given) | -8.621% | -11.92%
[H][C@]12CCCCN1CCC[C@H]2CCc1nc(-c2ccc(C)nn2)no1 | 6.626% | -0.9798%
CS(=O)(=O)CCCOc1cccc(-n2cccn2)c1 | -32.43% | 3.846%
Cc1nn(C(C)C)c2cn(CC(=O)NC3CCSCC3)nc12 | - | 14.25%
Cc1cnn(CC2CCCCN2Cc2cnc(C)s2)c1 (stereo not given) | - | -5.574%
Cn1cc(CN2CCOCC3(CCN(C4CCOCC4)C3)C2)cn1 (stereo not given) | -19.88% | 6.005%
CC(C)(C)c1ncc(C(=O)NC(C(N)=O)c2ccccc2)s1 (stereo not given) | -12.34% | 26.32%
COCCCNC(=O)CN1CCC(c2ccccc2)C1 (stereo not given) | -42.04% | 22.28%
COc1ccc([C@@H]2CN(C(=O)CCc3cc(Cl)no3)C[C@H]2N(C)C)cc1 | -0.7443% | -4.722%
Cc1ccc2c(c1)OCCCC2NCc1nnc2n1CCCCC2 (stereo not given) | -16.25% | 1.116%
O=C(O)C(F)(F)F.O=C(O)C(F)(F)F.O=C1NC2(CCN(Cc3nccs3)CC2)CC1c1ccncc1 (stereo not given) | 20.41% | 6.823%
Cc1cc(C(C)NC(=O)CCn2nnc3ccccc3c2=O)c(C)o1 (stereo not given) | -33.74% | -14.63%
c1ccc(Cn2cccn2)c(CNCc2cnc(N3CCCC3)nc2)c1 | -14.13% | -14.72%
CCCN(CCOC)C(=O)c1cc(Cn2c(C)nc3ccccc32)[nH]n1 | -9.693% | -8.182%
CC(C)n1nnc(CC(=O)NCC2(c3cccc(F)c3)CCCC2)n1 | -8.83% | 0.03639%
CC1CCN(S(=O)(=O)c2cccnc2)c2ccccc2S1 (stereo not given) | 80.08% | -16.88%
O=C(O)C(F)(F)F.O=C(c1ccc(F)cc1)N1CCC2(CCN(Cc3ccccn3)C2=O)C1 (stereo not given) | -50.24% | -2.909%
CCc1nccc(CN2CCCC(CNC(=O)c3ccccn3)C2)n1 (stereo not given) | -38.14% | -41.77%
Cc1nn(CCO)c(C)c1CNC1CCCCc2ccccc21 (stereo not given) | 10.8% | 3.394%
Cc1nccn1CCCN1CCCC(c2nccn2C)C1 (stereo not given) | -19.54% | -0.4244%
Nc1nccnc1C1CN(C(=O)c2ccnnc2)CCO1 (stereo not given) | 0.5788% | -9.379%
CC(NC(=O)c1ccc(CS(C)(=O)=O)o1)c1ccc(F)c(F)c1 (stereo not given) | -17.29% | 2.126%
CN(C)CC(C)(C)Cn1cnc(-c2ccccc2)c1-c1cccc(O)c1 | -32.61% | 4.813%
CCCn1[nH]cc/c1=N\C(=O)CN1CCCC1c1c(C)nn(C)c1C (stereo not given) | 4.58% | 2.814%
CC(=O)NC(C)C(=O)N(Cc1ccc(C)c(C)c1)C1CC1 (stereo not given) | -28.73% | 5.835%
CC1=CC(C)(C)N(CN2C(=O)c3ccccc3C2=O)c2ccccc21 | -29.01% | -33.81%
OC1CCN(CCNc2ncc3c(n2)CCN3c2ccccc2)CC1 | -39.93% | -15.48%
Cc1nn(C)c(C)c1CCC(=O)N(C)Cc1ccc(C#N)cc1 | - | 11.99%
Cn1ncc(C(=O)OCC2CCN(c3ccccc3)C2)c1C(F)F (stereo not given) | -37.38% | 4.135%
Cc1c(Br)c(C(F)(F)F)nn1C(C)C(=O)O (stereo not given) | -6.838% | -13.55%
COc1cnc(CSc2nnc(C)s2)cc1OCC(=O)NC(C)(C)C | -14.53% | 4.035%
O=C1CCC2(CCN(Cc3ncccn3)CC2)CN1CCCO | 11.84% | -17.01%
CS(=O)(=O)Cc1nc(CN2CCOc3ccccc3C2)cs1 | 7.732% | 20.82%
CC1CN(C)c2ccccc2CN1C(=O)c1cnsn1 (stereo not given) | -43.85% | -39.25%
O=C(C1CCOC1)N1CC2(CCN(c3ccccc3)C2)C1 (stereo not given) | -11.36% | 2.006%
Cc1noc(C)c1-c1cccc(CC2CCN(C(=O)CN)C2)n1 (stereo not given) | -8.465% | 12.66%
COc1cc(-c2cnnc(NCC3CC3)n2)cc(OC)c1OC | -49.91% | 2.372%
CCOC(=O)N1CCN(C(=O)c2sc(-c3ccccc3F)nc2C)CC1 | 51.23% | -2.512%
Cc1nn(C)cc1NC(=O)CC1CCN(CCc2ccccc2)CC1 | - | 7.687%
O=C(NCc1cc(Cl)ccn1)NCc1ccco1 | -74.33% | -1.19%

Some entries from above, unchanged:

compound,T. brucei,Toxoplasma
CC(NC1CCN(CC(=O)N(C)C)CC1)c1cnn(C(C)C)c1 (stereo not given),-40.45%,-15.26%
CC(=O)NC(C)C(=O)N(Cc1ccc(C)c(C)c1)C1CC1 (stereo not given),-28.73%,5.835%
COc1cnc(CSc2nnc(C)s2)cc1OCC(=O)NC(C)(C)C,-14.53%,4.035%
CC1=CC(C)(C)N(CN2C(=O)c3ccccc3C2=O)c2ccccc21,-29.01%,-33.81%
COC(=O)c1cccc(C(=O)N2CCN(c3cccc(C)c3C)CC2)n1,17.14%,6.984%
CCc1nccc(CN2CCCC(CNC(=O)c3ccccn3)C2)n1 (stereo not given),-38.14%,-41.77%
N#Cc1nccnc1NC1CCN(c2c(F)cccc2F)C1 (stereo not given),-31.66%,-4.482%